Legend:
[1] = general procedure: peptide synthesis; 2-chlorotritylchloride resin 1% DVB; HBTU or HATU; alternatively PyBOP, PyBrOP, TFFH; DIC/HOAt; TCTU/DIPEA; conditions: whole synthesis, scale of the general procedure 0.25 mmol or 1.0 mmol, TFA salt; run 1
[2] = general procedure: peptide synthesis; 2-chlorotritylchloride resin; Wang or trityl based resins; HBTU or HATU; alternatively PyBOP, PyBrOP, TFFH; DIC/HOAt; TCTU/DIPEA; conditions: TFA salt; for final HPLC purity: 220 nm
[3] = whole synthesis, scale of the general procedure 0.25 mmol or 1.0 mmol, run 2

Fmoc-His(Boc)-Aib-Glu(O-Tbu)-Gly-OH
isolated yield [1]: 45%
final HPLC purity ([2]; whole synthesis, scale of the general procedure 0.25 mmol or 1.0 mmol, run 1): 99.0%
final HPLC purity [2, 3]: 98.7%
isolated yield [2, 3]: 80%

Fmoc-His(Boc)-Aib-Glu(OtBu)-Gly-OSu
step yield ([2]; late stage modification step): 79%
